PubChem BioAssay AID1159601 | NIAID, 2016
Purpose: 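Genes whose loss changes TNF reporter induction by lipopeptide in human macrophage-like cells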 (primary screen). System: human THP-1 reporter cells differentiated with PMA into macrophage-like cells. Knock-down reagent: single siRNA against human genes. Duration: ligand added 4 hours before read-out; cells assayed 48 to 72 hours after siRNA transfection. Treatment: Pam3CSK4 (TLR2 ligand) for 4 hours; dose not given. Read-out: 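Firefly over renilla luciferase ratio from a TNF promoter reporter after 4 h Pam3CSK4, plate scaled by median and MAD, robust z-score versus negative controls, replicate mean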. Reading the numbers: TNF reporter z-score: higher = stronger TNF promoter reporter activity. Hit rule: 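The depositor grades each siRNA by the size of its mean z-score in either direction, with steps at 1, 1.5, 2 and 2.5; active calls sit near -1.5 or below, or near 1.5 or above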. Meaning of the calls: active = clear change (up or down); inactive = little change.
This is one part, drawn at random, of 756 reagents. Over the whole deposit, 143 (19%) were called active. 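Calls include both lowered and raised reporter signal; each row is a single siRNA, not a gene summary; Pam3CSK4 dose not stated.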 Reagents against one gene are numbered here. Reagent sequences are not shown. The record does not give: the amount of reagent.

Gene | reagent | TNF reporter z-score, replicate mean | outcome
NFKBIE (GeneID 4794) | 1 | -0.72 | inactive
NFKBIE (GeneID 4794) | 2 | -1.3 | inactive
NFKBIE (GeneID 4794) | 3 | -1.25 | inactive
NFKBIE (GeneID 4794) | 4 | -1.21 | inactive
NFKBIE (GeneID 4794) | 5 | -1.55 | active
NFKBIE (GeneID 4794) | 6 | -2.06 | active
